Measured values as given in the supplement of paper PMC12819154, “High-throughput peptide-centric local stability assay extends protein–ligand identification to membrane proteins, tissues and bacteria” (Nature Structural & Molecular Biology, 2025).
The other results are listed elsewhere or left out. Most values lie at the level of the controls, where differences are scatter.

Amino acid sequences for entries named in this document (tags omitted). A change or cut given only in a name is not applied to a line headed by its entry.
UniProt Q8BKC8: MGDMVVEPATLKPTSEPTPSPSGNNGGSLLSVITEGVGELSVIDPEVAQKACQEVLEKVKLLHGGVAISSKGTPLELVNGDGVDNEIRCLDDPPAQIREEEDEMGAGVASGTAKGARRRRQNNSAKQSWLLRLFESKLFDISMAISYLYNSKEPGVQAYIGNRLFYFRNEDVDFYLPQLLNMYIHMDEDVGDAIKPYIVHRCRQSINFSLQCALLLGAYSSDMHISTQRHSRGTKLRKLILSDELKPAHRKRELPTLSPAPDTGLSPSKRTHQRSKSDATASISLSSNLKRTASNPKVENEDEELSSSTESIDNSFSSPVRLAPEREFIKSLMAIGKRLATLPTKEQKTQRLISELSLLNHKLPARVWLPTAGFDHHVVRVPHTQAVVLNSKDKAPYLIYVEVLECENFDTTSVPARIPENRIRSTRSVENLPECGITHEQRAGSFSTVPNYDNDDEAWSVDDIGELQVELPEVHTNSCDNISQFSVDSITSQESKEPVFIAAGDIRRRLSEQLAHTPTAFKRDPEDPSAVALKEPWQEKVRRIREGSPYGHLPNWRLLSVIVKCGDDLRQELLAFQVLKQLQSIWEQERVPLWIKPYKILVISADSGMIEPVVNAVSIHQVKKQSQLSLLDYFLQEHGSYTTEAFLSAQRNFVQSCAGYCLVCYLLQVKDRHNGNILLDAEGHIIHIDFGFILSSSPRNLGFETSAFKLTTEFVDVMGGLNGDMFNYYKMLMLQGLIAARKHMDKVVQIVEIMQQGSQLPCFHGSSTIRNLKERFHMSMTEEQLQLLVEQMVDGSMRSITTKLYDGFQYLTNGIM
UniProt Q8BJF9, whole entry: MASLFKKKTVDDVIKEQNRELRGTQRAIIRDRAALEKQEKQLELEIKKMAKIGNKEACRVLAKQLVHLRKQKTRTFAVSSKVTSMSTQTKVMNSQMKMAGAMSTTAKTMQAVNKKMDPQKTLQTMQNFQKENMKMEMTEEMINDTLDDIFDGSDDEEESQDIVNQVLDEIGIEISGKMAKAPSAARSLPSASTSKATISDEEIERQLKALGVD
UniProt Q8BMK1: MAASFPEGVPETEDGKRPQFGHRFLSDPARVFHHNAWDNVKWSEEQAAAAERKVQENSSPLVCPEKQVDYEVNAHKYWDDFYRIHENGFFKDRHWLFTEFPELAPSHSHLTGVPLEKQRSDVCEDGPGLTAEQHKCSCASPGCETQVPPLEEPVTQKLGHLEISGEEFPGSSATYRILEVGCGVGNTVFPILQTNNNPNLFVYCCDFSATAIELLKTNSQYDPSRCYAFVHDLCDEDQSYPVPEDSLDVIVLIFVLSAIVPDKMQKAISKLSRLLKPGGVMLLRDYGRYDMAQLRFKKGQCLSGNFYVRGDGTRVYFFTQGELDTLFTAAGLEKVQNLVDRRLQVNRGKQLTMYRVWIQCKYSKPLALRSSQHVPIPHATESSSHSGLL
UniProt Q8BP47: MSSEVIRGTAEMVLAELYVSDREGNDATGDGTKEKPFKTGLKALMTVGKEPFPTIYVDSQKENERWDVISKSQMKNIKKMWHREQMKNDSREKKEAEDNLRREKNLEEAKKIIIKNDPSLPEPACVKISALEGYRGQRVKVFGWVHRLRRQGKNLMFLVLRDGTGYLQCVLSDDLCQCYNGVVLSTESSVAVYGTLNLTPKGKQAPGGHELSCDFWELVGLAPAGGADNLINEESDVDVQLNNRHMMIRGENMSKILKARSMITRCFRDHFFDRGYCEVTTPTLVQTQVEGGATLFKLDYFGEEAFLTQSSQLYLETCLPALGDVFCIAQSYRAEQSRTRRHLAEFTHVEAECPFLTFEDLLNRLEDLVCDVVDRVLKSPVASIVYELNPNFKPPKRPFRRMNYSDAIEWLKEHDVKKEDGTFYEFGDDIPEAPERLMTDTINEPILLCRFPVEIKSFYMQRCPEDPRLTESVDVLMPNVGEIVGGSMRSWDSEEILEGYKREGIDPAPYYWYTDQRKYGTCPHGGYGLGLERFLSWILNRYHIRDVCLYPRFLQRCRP
UniProt Q8BPA8: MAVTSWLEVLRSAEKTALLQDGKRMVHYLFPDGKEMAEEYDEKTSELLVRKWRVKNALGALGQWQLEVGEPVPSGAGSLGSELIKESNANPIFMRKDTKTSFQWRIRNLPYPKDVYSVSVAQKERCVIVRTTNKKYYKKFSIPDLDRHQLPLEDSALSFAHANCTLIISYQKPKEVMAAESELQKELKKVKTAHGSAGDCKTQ
UniProt Q8BK64, whole entry: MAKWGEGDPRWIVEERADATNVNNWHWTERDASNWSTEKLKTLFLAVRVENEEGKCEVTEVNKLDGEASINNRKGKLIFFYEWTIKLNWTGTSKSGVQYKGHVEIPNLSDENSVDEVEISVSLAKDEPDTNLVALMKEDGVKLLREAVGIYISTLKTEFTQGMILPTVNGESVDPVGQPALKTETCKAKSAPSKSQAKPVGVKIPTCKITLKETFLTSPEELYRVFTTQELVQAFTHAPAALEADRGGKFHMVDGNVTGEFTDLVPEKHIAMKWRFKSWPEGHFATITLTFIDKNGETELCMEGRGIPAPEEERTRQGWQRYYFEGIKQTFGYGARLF
UniProt Q8BIV3: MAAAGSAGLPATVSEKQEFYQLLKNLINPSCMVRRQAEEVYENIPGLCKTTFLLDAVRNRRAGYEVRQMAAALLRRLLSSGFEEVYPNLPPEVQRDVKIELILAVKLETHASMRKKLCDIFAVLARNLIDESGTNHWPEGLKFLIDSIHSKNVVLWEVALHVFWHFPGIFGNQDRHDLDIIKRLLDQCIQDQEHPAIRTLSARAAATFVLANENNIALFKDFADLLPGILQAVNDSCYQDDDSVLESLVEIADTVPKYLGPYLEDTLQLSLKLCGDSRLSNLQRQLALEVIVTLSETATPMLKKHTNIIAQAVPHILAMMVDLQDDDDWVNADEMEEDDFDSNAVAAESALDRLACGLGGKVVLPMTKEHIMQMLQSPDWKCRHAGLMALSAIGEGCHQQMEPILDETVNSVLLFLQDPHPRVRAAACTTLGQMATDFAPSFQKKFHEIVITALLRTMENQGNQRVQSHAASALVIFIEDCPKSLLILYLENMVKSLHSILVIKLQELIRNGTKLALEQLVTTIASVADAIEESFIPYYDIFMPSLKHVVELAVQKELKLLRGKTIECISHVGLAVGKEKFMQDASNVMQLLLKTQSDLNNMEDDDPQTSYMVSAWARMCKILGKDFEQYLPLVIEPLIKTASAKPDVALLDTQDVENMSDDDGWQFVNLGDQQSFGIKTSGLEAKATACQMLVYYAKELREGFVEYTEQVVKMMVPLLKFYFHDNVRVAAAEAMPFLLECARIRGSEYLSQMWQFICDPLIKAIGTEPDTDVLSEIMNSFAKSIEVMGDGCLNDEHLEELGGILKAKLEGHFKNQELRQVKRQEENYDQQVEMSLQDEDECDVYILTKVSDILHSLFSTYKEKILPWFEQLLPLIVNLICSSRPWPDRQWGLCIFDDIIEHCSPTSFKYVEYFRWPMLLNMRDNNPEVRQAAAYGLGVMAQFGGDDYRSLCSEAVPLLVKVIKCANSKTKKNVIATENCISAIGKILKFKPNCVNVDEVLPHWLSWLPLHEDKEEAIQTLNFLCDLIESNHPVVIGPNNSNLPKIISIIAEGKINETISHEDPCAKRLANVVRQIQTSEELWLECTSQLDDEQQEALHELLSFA
UniProt Q8BR63: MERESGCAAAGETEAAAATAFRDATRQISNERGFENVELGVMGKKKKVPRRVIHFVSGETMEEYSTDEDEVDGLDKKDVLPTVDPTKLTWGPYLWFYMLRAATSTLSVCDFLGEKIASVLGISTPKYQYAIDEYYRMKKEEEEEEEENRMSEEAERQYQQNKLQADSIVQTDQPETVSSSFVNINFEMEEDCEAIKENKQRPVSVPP
UniProt Q8BUP8: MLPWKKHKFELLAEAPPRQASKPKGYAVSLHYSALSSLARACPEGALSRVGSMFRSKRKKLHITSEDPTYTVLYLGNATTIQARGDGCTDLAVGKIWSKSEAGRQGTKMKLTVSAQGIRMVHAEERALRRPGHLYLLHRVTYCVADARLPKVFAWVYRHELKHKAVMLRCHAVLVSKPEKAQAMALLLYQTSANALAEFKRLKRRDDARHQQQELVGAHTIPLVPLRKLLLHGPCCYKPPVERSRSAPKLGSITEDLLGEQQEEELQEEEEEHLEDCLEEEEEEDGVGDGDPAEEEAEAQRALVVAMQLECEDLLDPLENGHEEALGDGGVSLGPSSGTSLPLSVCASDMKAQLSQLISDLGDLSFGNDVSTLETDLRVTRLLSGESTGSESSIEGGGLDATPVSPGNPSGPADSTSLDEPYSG
UniProt Q8BQ47: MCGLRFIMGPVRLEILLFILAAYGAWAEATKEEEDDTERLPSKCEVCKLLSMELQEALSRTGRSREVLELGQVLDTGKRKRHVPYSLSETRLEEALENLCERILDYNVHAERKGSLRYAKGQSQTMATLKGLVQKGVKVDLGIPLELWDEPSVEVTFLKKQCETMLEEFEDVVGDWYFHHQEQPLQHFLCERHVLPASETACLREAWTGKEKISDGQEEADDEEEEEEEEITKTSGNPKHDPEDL
UniProt Q8BKZ9: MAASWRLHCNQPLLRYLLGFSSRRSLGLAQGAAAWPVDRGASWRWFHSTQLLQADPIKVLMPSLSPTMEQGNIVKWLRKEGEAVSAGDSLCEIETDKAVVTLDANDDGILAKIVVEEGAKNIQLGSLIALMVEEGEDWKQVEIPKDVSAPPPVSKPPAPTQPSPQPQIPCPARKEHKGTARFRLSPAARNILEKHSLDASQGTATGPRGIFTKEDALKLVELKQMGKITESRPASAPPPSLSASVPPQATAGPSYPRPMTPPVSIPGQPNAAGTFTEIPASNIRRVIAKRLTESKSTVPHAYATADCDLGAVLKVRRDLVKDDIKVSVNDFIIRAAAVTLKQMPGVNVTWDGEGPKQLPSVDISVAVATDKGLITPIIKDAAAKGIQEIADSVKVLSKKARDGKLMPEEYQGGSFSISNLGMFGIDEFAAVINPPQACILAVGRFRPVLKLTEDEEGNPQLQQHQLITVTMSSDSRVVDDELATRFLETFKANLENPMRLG

Compound: CN[C@@H]1C[C@H]2O[C@@](C)([C@@H]1OC)n1c3ccccc3c3c4c(c5c6ccccc6n2c5c31)C(=O)NC4 [staurosporine]
Experiment: log2 fold change of tryptic peptide abundance, ligand vs vehicle (limited proteolysis) (log2 ratio); higher = more trypsin-susceptible (destabilized)
Conditions: ligand concentration: 20 uM; sample: mouse liver crude lysate; replicate design: treated separately

Target	log2 fold change
UniProt Q8BKC8 (peptide sequence: KLILSDELKPAHR, peptide start residue: 238)	0.249
UniProt Q8BJF9 (peptide sequence: VTSMSTQTK, peptide start residue: 82)	-0.13
UniProt Q8BMK1 (peptide sequence: AASFPEGVPETEDGKRPQFGHR, peptide start residue: 2)	-0.133
UniProt Q8BP47 (peptide sequence: MNYSDAIEWLKEHDVK, peptide start residue: 402)	0.2
UniProt Q8BPA8 (peptide sequence: MVHYLFPDGK, peptide start residue: 25)	0.404
UniProt Q8BK64 (peptide sequence: DASNWSTEK, peptide start residue: 31)	-0.172
UniProt Q8BIV3 (peptide sequence: AKLEGHFK, peptide start residue: 807)	-0.359
UniProt Q8BR63 (peptide sequence: GFENVELGVMGK, peptide start residue: 33)	-0.131
UniProt Q8BUP8 (peptide sequence: HQQQELVGAHTIPLVPLRK, peptide start residue: 210)	0.3
UniProt Q8BQ47 (peptide sequence: GQSQTMATLK, peptide start residue: 121)	-0.378
UniProt Q8BKZ9 (peptide sequence: GLITPIIKDAAAK, peptide start residue: 372)	0.135

2 records drawn at random from those above:
Target	log2 fold change
UniProt Q8BMK1 (peptide sequence: AASFPEGVPETEDGKRPQFGHR, peptide start residue: 2)	-0.133
UniProt Q8BJF9 (peptide sequence: VTSMSTQTK, peptide start residue: 82)	-0.13
